Data reported in PubChem BioAssay AID493150 (Broad Institute, 2011).
Inconclusive results, whose numbers are uncertain, are shown with a selection of clear calls. Activity calls are given as the source filed them.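 How the source made its calls: active means compound whose fitted half-maximal growth inhibition concentration stays within ten times its top tested dose in every replicate test; inconclusive means replicate tests disagree, or flat partial inhibition, or poor curve fit; inactive means every replicate test inactive, including wrong-direction or flat responses.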

assay: Candida CaCi-2 growth reduction under fluconazole – CaCi-2 strain, Alamar Blue, dry powder, set 5, confirmation (AID 493150); conditions: C. albicans CaCi-2 (fluconazole-resistant clinical isolate) + fluconazole, 48 h; at 12 µM (top of the series)
Procedure, shortened: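 Material: clinical Candida albicans isolate CaCi-2, resistant to fluconazole. Input: fungal inoculum at starting OD600 of 0.00015. Buffer or medium: RPMI/MOPS defined medium. Reagent: fluconazole 8 µg/mL. Incubation: 48 h humidified 37 °C exposure, 2 h room-temperature dye step. Signal: Alamar Blue fluorescence, Ex 544/Em 590 nm.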

SMILES	activity change, negative = inhibition
COC(=O)Cn1nc(-c2ccccc2)c2ccc(C(F)(F)F)cc21	inconclusive: -21.7%
O=C(Cn1nc(-c2ccccc2)c2ccccc21)Oc1ccccc1	inactive: -4.43%
CCOC(=O)Cn1nc(-c2ccccc2)c2ccccc21	inactive: 4.8%
COC(=O)Cn1nc(-c2ccccc2C)c2ccccc21	inconclusive: -86.3%
CN(C)C(=O)Cn1nc(-c2ccccc2)c2ccccc21	inconclusive: -7.24%
COC(=O)CCn1nc(-c2ccccc2)c2ccccc21	inactive: 1.2%
COC(=O)Cn1nc(-c2ccccc2)c2ccc(C#N)cc21	inactive: -14.7%
